{"sequences": {"note": "The chains behind the UniProt entries cited, without tags or fusion partners. Where a name states a change or a piece, a line headed by the entry shows the natural chain unless it says otherwise.", "UniProt P20333": "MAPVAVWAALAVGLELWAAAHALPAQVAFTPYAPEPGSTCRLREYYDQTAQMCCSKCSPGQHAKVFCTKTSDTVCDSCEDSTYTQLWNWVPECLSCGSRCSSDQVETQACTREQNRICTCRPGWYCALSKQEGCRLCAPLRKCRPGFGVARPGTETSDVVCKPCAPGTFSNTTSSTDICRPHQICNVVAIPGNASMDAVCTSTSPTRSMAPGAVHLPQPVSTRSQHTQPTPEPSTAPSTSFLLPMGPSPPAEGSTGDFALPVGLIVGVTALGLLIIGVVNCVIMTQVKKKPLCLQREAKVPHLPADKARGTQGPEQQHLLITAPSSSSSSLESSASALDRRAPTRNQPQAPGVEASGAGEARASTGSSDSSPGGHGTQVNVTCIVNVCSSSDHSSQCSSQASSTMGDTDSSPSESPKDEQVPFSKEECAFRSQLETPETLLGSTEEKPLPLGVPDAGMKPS"}, "source": "patent US20250043016A1", "about": "(SANYOU BIOPHARMACEUTICALS, published 2025)", "binders": {"B1": {"name": "161-hVH5-48 nanobody with the Fc removed by papain digestion (VHH)", "VHH": "EVQLVESGGGLVQPGGSLRLSCAASGSIRFINDMGWYRQAPGKGLELVAAIGRGGGSTNYADSVKGRFTISRDNAKNTLYLQMNSLRAEDTAVYYCHAEISQLGYAFRDYWGQGTLVTVSS"}}, "biological_target": "TNFR2 (33-205 aa) protein, expressed in E. coli and renatured (Homo sapiens (Human)) (UniProt P20333)", "experiment": "complex prepared on Superdex 75 and crystallised; X-ray diffraction", "note": "No constants are given. Whether binding was seen depends on the method and setting. Some binding calls cover weakened binding; strength is not graded here. Sequences can lack the tags named with a protein."}
{"binder": "B1", "values": [{"measurement": "binding", "result": "binds"}]}
